Experimental findings from PMC7171158 are described below.

By UniProt entry, the sequences of proteins in these tests, tags left out.
UniProt P0AFG0: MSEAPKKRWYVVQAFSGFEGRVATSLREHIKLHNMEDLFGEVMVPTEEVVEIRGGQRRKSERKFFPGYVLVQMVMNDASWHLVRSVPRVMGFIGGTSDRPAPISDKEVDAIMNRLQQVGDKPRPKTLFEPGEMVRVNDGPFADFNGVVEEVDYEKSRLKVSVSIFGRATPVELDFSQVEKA

Results are given in words; binding and its absence hold for the method and conditions named.

For the assay, the target named is T1, antiterminator protein Q from phage λ (λQ), full length (phage λ) (UniProt P03047).
T1 sequence: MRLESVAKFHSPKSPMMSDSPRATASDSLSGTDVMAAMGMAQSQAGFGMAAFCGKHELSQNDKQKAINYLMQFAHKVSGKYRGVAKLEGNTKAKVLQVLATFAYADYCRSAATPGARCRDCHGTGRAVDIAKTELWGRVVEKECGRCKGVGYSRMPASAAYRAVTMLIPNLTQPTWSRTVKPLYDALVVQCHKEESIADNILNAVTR
The assay is described as follows: NMR titration; [1H,15N]-HSQC or BEST-TROSY titration of the 15N-labeled protein with the unlabeled partner; 298 K; 50 mM MOPS pH 6.5, 300 mM NaCl, 150 mM D-glucose, 5 mM DTT; both purified.

“N-utilization substance G (NusG) (from UniProt P0AFG0 1-181)”: the binding entry was “no binding”.

With “N-utilization substance B (NusB) (from UniProt P0A780 1-139)”, the binding entry was “no binding”.
